## Melanoma cell counts after drug treatment

Source: doi:10.1371/journal.pone.0140310, primary screening data, rounded.

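The test systems are human melanoma cell lines, treated with two drugs together for 72 h and then stained and imaged. Values are the number of DAPI-stained nuclei as a percentage of the DMSO control: 100 is no effect, lower means fewer cells. Every drug was used at one fixed concentration, the lower of two screened (a fifth of the higher). These are primary screening values without error estimates.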
Only some of the drugs and lines screened are listed, without regard to their results.

Drug key:
AZD7762, 0.02 µM: NC(=O)Nc1cc(-c2cccc(F)c2)sc1C(=O)N[C@H]1CCCNC1
veliparib, 1.4 µM: C[C@]1(c2nc3c(C(N)=O)cccc3[nH]2)CCCN1
YM155, 0.0004 µM: COCC[n+]1c2c(n(Cc3cnccn3)c1C)C(=O)c1ccccc1C2=O
nilutamide, 1 µM: CC1(C)NC(=O)N(c2ccc([N+](=O)[O-])c(C(F)(F)F)c2)C1=O
SNS-032, 0.01 µM: CC(C)(C)c1cnc(CSc2cnc(NC(=O)C3CCNCC3)s2)o1
enzastaurin, 0.8 µM: Cn1cc(C2=C(c3cn(C4CCN(Cc5ccccn5)CC4)c4ccccc34)C(=O)NC2=O)c2ccccc21
lestaurtinib, 0.004 µM: C[C@]12O[C@H](C[C@]1(O)CO)n1c3ccccc3c3c4c(c5c6ccccc6n2c5c31)CNC4=O
MK-1775, 0.02 µM: C=CCn1c(=O)c2cnc(Nc3ccc(N4CCN(C)CC4)cc3)nc2n1-c1cccc(C(C)(C)O)n1
midostaurin, 0.08 µM: CO[C@@H]1[C@H](N(C)C(=O)c2ccccc2)C[C@H]2O[C@]1(C)n1c3ccccc3c3c4c(c5c6ccccc6n2c5c31)C(=O)NC4
cediranib, 0.4 µM: COc1cc2c(Oc3ccc4[nH]c(C)cc4c3F)ncnc2cc1OCCCN1CCCC1

For lestaurtinib and AZD7762 the values were A2058: 106; A375: 53.1; C32: 113; A101D: 81.7. For SNS-032 and nilutamide the values were A2058: 103; A375: 89.4; C32: 102; A101D: 90.2. YM155 and lestaurtinib gave A2058: 87.2; A375: 139; C32: 107; A101D: 99.3.

lestaurtinib and nilutamide gave A2058: 95.5; A375: 106; C32: 114; A101D: 91.4. With enzastaurin and lestaurtinib the screen read A2058: 86.0; A375: 74.6; C32: 86.1; A101D: 84.7. Results for nilutamide and veliparib are A2058: 83.0; A375: 83.7; C32: 94.7; A101D: 81.9.

With enzastaurin and SNS-032 the screen read A2058: 89.8; A375: 90.4; C32: 92.1; A101D: 93.3. veliparib and midostaurin gave A2058: 82.8; A375: 82.3; C32: 81.5; A101D: 71.0. YM155 and MK-1775 gave A2058: 74.4; A375: 69.4; C32: 108; A101D: 84.3.

Results for veliparib and MK-1775 are A2058: 95.4; A375: 46.4; C32: 96.7; A101D: 64.9. With nilutamide and YM155 the screen read A2058: 48.3; A375: 74.1; C32: 102; A101D: 83.7. Results for midostaurin and lestaurtinib are A2058: 92.7; A375: 89.6; C32: 96.0; A101D: 85.5.

Results for YM155 and AZD7762 are A2058: 40.8; A375: 54.6; C32: 101; A101D: 73.6. With enzastaurin and cediranib the screen read A2058: 91.1; A375: 75.9; C32: 93.2; A101D: 103. For AZD7762 and enzastaurin the values were A2058: 106; A375: 53.2; C32: 111; A101D: 59.8.

For enzastaurin and nilutamide the values were A2058: 101; A375: 83.1; C32: 102; A101D: 93.0. With MK-1775 and enzastaurin the screen read A2058: 107; A375: 58.4; C32: 107; A101D: 76.8. enzastaurin and midostaurin gave A2058: 85.8; A375: 84.0; C32: 80.9; A101D: 70.4.

With SNS-032 and YM155 the screen read A2058: 70.0; A375: 78.0; C32: 92.7; A101D: 71.5. For veliparib and SNS-032 the values were A2058: 89.7; A375: 83.4; C32: 88.8; A101D: 85.2. With AZD7762 and nilutamide the screen read A2058: 83.1; A375: 69.4; C32: 105; A101D: 98.2.

cediranib and SNS-032 gave A2058: 93.6; A375: 69.2; C32: 94.3; A101D: 96.4. With midostaurin and MK-1775 the screen read A2058: 89.0; A375: 79.3; C32: 92.5; A101D: 73.4. AZD7762 and veliparib gave A2058: 77.5; A375: 34.1; C32: 97.1; A101D: 79.7.

For cediranib and lestaurtinib the values were A2058: 108; A375: 109; C32: 107; A101D: 108. For midostaurin and AZD7762 the values were A2058: 88.9; A375: 49.0; C32: 92.1; A101D: 63.4. MK-1775 and nilutamide gave A2058: 96.1; A375: 87.4; C32: 112; A101D: 81.4.

Results for cediranib and AZD7762 are A2058: 104; A375: 53.1; C32: 91.7; A101D: 94.7. For cediranib and nilutamide the values were A2058: 91.3; A375: 78.4; C32: 84.9; A101D: 103. Results for YM155 and midostaurin are A2058: 43.9; A375: 56.9; C32: 82.0; A101D: 79.6.

nilutamide and midostaurin gave A2058: 79.0; A375: 117; C32: 103; A101D: 87.7. Results for cediranib and midostaurin are A2058: 79.6; A375: 86.2; C32: 91.3; A101D: 86.1. With SNS-032 and lestaurtinib the screen read A2058: 96.0; A375: 104; C32: 86.2; A101D: 90.5.

Some entries from above, unchanged:

{"drugs": "MK-1775 and enzastaurin", "A2058": 107, "A375": 58.4, "C32": 107, "A101D": 76.8}
{"drugs": "lestaurtinib and AZD7762", "A2058": 106, "A375": 53.1, "C32": 113, "A101D": 81.7}